Source: PubChem BioAssay AID192 (DTP/NCI, 2004)
The list does not hold the whole screen: it is rich in T/C values a quarter to a half above the control, in often repeated tests (any T/C) and in doses without a T/C. Further doses and runs are listed elsewhere. T/C is the treated group as % of the vehicle group. Some entries give survivors of the animals treated and no T/C: the source files T/C as zero there, which appears to mark a toxic dose or a test without result, not a measured value. Some survivor counts are full or nearly so, which does not show that the dose was tolerated: the source hardly ever lists a survival T/C far under the control, and the zero likely stands for such cases as well. Survivors were counted at the toxicity check, usually on the fifth day, unless a day is given; later deaths do not show. Schedule codes are those of the source, taken here to give the interval after Q, in days (D) or hours (H), and the number of doses after X. Some entries hold several experiments; the results are listed from low to high. Where survival is the endpoint, the PubChem record calls one and a half times the control and up active, and a quarter to a half above the control has no call in these data; cut-offs in other NCI protocols can differ. Numbered stars: 1 amine (or outer) side, 2 acyl side, 3 side chain; on linkers, the order of the positions; unused ones are H or OH. Bridge positions count the residues as written; N and C are the ends. Square brackets hold non-standard residues; d marks the D form. Peptide text beside a SMILES is read from it. I, II: the chains in the order shown. ξ: configuration not given here. Actinocin(9to1) = Cc1c2oc3c(C)ccc(C(=O)[*:1])c3nc-2c(C(=O)[*:2])c(N)c1=O; ξPro(4ξ-Me) = CC1CNC(C(=O)O)C1; NMeV = CN[CH](C(=O)O)C(C)C; Sar = CNCC(=O)O

Tested on: BDF1 mice, B16 melanoma ip, median survival T/C
Assay: NCI In Vivo Anticancer Drug Screen. Data for tumor model B16 Melanoma (intraperitoneal) in B6D2F1 (BDF1) mice
Settings: T/C endpoint: median survival time, higher T/C = longer survival
Method in brief: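 The ratio T/C compares compound-treated mice with vehicle-treated controls, using survival or tumor size as the endpoint in a transplantable tumor model.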

[1] = dose: 400.0 mg/kg/injection, schedule: Q01DX009 (ip), vehicle: Klucel (hydroxypropylcellulose) (HPC)
[2] = dose: 12.5 mg/kg/injection, schedule: Q01DX009 (ip), vehicle: Klucel (hydroxypropylcellulose) (HPC)
[3] = dose: 100.0 mg/kg/injection, schedule: Q01DX009 (ip), vehicle: Klucel (hydroxypropylcellulose) (HPC)
[4] = dose: 0.25 mg/kg/injection, schedule: Q01DX009 (ip), vehicle: saline
[5] = dose: 100.0 mg/kg/injection, schedule: Q01DX009 (ip), vehicle: saline with Tween-80
[6] = dose: 200.0 mg/kg/injection, schedule: Q01DX009 (ip), vehicle: saline with Tween-80
[7] = dose: 400.0 mg/kg/injection, schedule: Q01DX009 (ip), vehicle: saline with Tween-80
[8] = dose: 7.2 mg/kg/injection, schedule: Q01DX001 (ip), vehicle: water

## COC(=O)c1[nH]c(=O)[nH]c(=O)c1F
dose: 16.0 mg/kg/injection, schedule: Q01DX009 (ip), vehicle: saline with Tween-80
  survivor count: 10 of 10

## N#CCN(CC#N)CC#N
dose: 1.56 mg/kg/injection, schedule: Q04DX003 (ip), vehicle: saline with Tween-80
  survivor count: 9 of 10

## Clc1ccc(COC(Cn2ccnc2)c2ccc(Cl)cc2Cl)c(Cl)c1 (centres undefined)
[1]
  survivor count: 10 of 10

## C=C(C)[C@@H]1CC[C@]2(C)CC[C@]3(C)[C@H](CC[C@@H]4[C@@]5(C)CC[C@H](O)C(C)(C)[C@@H]5CC[C@]43C)[C@@H]12
[2]
  survivor count: 9 of 10
dose: 25.0 mg/kg/injection, schedule: Q01DX009 (ip), vehicle: Klucel (hydroxypropylcellulose) (HPC)
  survivor count: 10 of 10
dose: 50.0 mg/kg/injection, schedule: Q01DX009 (ip), vehicle: Klucel (hydroxypropylcellulose) (HPC)
  survivor count: 10 of 10
[3]
  survivor count: 5 of 10

## CCN(CC)Cc1c(C)cc2oc(=O)c3c(c2c1O)CCCC3
dose: 128.0 mg/kg/injection, schedule: Q01DX009 (ip), vehicle: Klucel (hydroxypropylcellulose) (HPC)
  survivor count: 2 of 5

## COc1cccc2c1C(=O)c1c(O)c3c(c(O)c1C2=O)C[C@@](O)(C(=O)COC(=O)CCCCC(=O)O)C[C@@H]3OC1CC(NC(=O)C(F)(F)F)C(O)C(C)O1 (some centres undefined)
dose: 9.38 mg/kg/injection, schedule: Q01DX001 (ip), vehicle: other
  T/C: 131 % of control
dose: 18.75 mg/kg/injection, schedule: Q01DX001 (ip), vehicle: other
  T/C: 136 % of control
dose: 150.0 mg/kg/injection, schedule: Q01DX001 (ip), vehicle: other
  survivor count: 4 of 10

## Cc1cc(N)c2cc(NC(=O)CCCCCCCCC(=O)Nc3ccc4nc(C)cc(N)c4c3)ccc2n1
[2]
  survivor count: 10 of 10
[3]
  survivor count: 10 of 10
dose: 200.0 mg/kg/injection, schedule: Q01DX009 (ip), vehicle: Klucel (hydroxypropylcellulose) (HPC)
  survivor count: 10 of 10
[1]
  survivor count: 4 of 10

## COc1cc2c3c(c1)-c1nc4ccccc4cc1CN3CCC2
dose: 400.0 mg/kg/injection, schedule: Q04DX003 (ip), vehicle: alcohol
  survivor count: 1 of 10

## CCC1CC(O)c2c(O)c3c(c(O)c2C1O)C(=O)c1cccc(O)c1C3=O (centres undefined) (tested in a mixture with another compound)
dose: 0.06 mg/kg/injection, schedule: Q01DX009 (ip), vehicle: saline
  survivor count: 10 of 10
dose: 0.12 mg/kg/injection, schedule: Q01DX009 (ip), vehicle: saline
  survivor count: 10 of 10
[4]
  survivor count: 9 of 10 and 10 of 10
dose: 0.25 mg/kg/injection, schedule: Q04DX003 (ip), vehicle: saline
  survivor count: 8 of 10 and 10 of 10
dose: 0.5 mg/kg/injection, schedule: Q01DX009 (ip), vehicle: saline
  survivor count: 9 of 10
dose: 0.5 mg/kg/injection, schedule: Q04DX003 (ip), vehicle: saline
  survivor count: 10 of 10
dose: 1.0 mg/kg/injection, schedule: Q01DX009 (ip), vehicle: saline
  survivor count: 7 of 10
dose: 1.0 mg/kg/injection, schedule: Q04DX003 (ip), vehicle: saline
  survivor count: 8 of 10 and 10 of 10
dose: 2.0 mg/kg/injection, schedule: Q01DX009 (ip), vehicle: saline
  survivor count: 7 of 10
dose: 2.0 mg/kg/injection, schedule: Q04DX003 (ip), vehicle: saline
  survivor count: 6 of 10
dose: 4.0 mg/kg/injection, schedule: Q01DX009 (ip), vehicle: saline
  survivor count: 5 of 10
dose: 4.0 mg/kg/injection, schedule: Q04DX003 (ip), vehicle: saline
  survivor count: 1 of 10
dose: 7.0 micrograms/kg/injection, schedule: Q01DX009 (ip), vehicle: saline
  T/C: 127 % of control
dose: 31.0 micrograms/kg/injection, schedule: Q01DX009 (ip), vehicle: saline
  T/C: 125 % of control
dose: 62.0 micrograms/kg/injection, schedule: Q01DX009 (ip), vehicle: saline
  T/C: 130 % of control
dose: 125.0 micrograms/kg/injection, schedule: Q01DX009 (ip), vehicle: saline
  survivor count: 10 of 10

## CNCC(C)(C)c1ccccc1
dose: 100.0 mg/kg/injection, schedule: Q01DX009 (ip), vehicle: saline
  survivor count: 7 of 10

## CCN(C(=O)Nc1ccccc1)c1ccccc1C
[5]
  survivor count: 10 of 10
[6]
  survivor count: 9 of 10
[7]
  survivor count: 9 of 10

## Nc1ccc(N=Nc2ccc(S(=O)(=O)O)cc2)cc1
[6]
  survivor count: 10 of 10
[7]
  survivor count: 3 of 10

## COc1cccc2c1C(=N)c1c(O)c3c(c(O)c1C2=O)C[C@@](O)(C(C)=O)C[C@@H]3OC1CC(N)C(O)C(C)O1 (some centres undefined)
dose: 0.25 mg/kg/injection, schedule: Q01DX009 (ip), vehicle: water
  T/C: 138 % of control
dose: 0.5 mg/kg/injection, schedule: Q01DX009 (ip), vehicle: water
  T/C: 133 % of control
dose: 3.13 mg/kg/injection, schedule: Q01DX001 (ip), vehicle: water
  T/C: 142 % of control
[8]
  T/C: 127 % of control
  survivor count: 8 of 8
dose: 8.0 mg/kg/injection, schedule: Q01DX009 (ip), vehicle: water
  survivor count: 10 of 10
dose: 12.0 mg/kg/injection, schedule: Q01DX001 (ip), vehicle: water
  T/C: 131 % of control
dose: 12.5 mg/kg/injection, schedule: Q01DX001 (ip), vehicle: water
  T/C: 144 % of control
dose: 16.0 mg/kg/injection, schedule: Q01DX009 (ip), vehicle: water
  survivor count: 10 of 10
dose: 20.0 mg/kg/injection, schedule: Q01DX001 (ip), vehicle: water
  survivor count: 8 of 8
dose: 25.0 mg/kg/injection, schedule: Q01DX001 (ip), vehicle: water
  survivor count: 10 of 10
dose: 33.3 mg/kg/injection, schedule: Q01DX001 (ip), vehicle: water
  survivor count: 5 of 8 and 8 of 8
dose: 50.0 mg/kg/injection, schedule: Q01DX001 (ip), vehicle: water
  survivor count: 8 of 10
dose: 100.0 mg/kg/injection, schedule: Q01DX001 (ip), vehicle: water
  survivor count: 4 of 10
dose: 200.0 mg/kg/injection, schedule: Q01DX001 (ip), vehicle: water
  survivor count: 0 of 10

## CNC(=O)CCN1CCN(CC/C=C2\c3ccccc3Sc3ccc(Cl)cc32)CC1
[4]
  T/C: 126 % of control
dose: 8.25 mg/kg/injection, schedule: Q01DX009 (ip), vehicle: saline
  survivor count: 9 of 10
dose: 16.5 mg/kg/injection, schedule: Q01DX009 (ip), vehicle: saline
  survivor count: 0 of 10
dose: 33.0 mg/kg/injection, schedule: Q01DX009 (ip), vehicle: saline
  survivor count: 0 of 10
dose: 66.0 mg/kg/injection, schedule: Q01DX009 (ip), vehicle: saline
  survivor count: 0 of 10

## C#CCN(C)/N=N/c1nc[nH]c1C(N)=O
[5]
  survivor count: 10 of 10
[6]
  survivor count: 8 of 10

## Cc1c2oc3c(C)ccc(C(=O)NC4C(=O)NC(C(C)C)C(=O)N5CC(C)CC5C(=O)N(C)CC(=O)N(C)C(C(C)C)C(=O)OC4C)c3nc-2c(C(=O)NC2C(=O)NC(C(C)C)C(=O)N3CC(C)CC3C(=O)N(C)CC(=O)N(C)C(C(C)C)C(=O)OC2C)c(N)c1=O (centres undefined) (I: TV[ξPro(4ξ-Me)][Sar][NMeV] / II: TV[ξPro(4ξ-Me)][Sar][NMeV]; ester I:1-I:C, II:1-II:C; linker I:N-II:N via Actinocin(9to1); configuration not given here)
dose: 1.3 mg/kg/injection, schedule: Q04DX003 (ip), vehicle: saline + alcohol
  T/C: 138 % of control
dose: 1.94 mg/kg/injection, schedule: Q04DX003 (ip), vehicle: saline + alcohol
  T/C: 138 % of control
dose: 2.16 mg/kg/injection, schedule: Q04DX003 (ip), vehicle: saline + alcohol
  T/C: 138 % of control
dose: 6.0 mg/kg/injection, schedule: Q04DX003 (ip), vehicle: saline + alcohol
  survivor count: 4 of 7
